PubChem BioAssay AID1259254, NCATS – 2017
Test: 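Gene knock-downs that lead to re-replication, shown by excess G2 DNA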 (primary screen). Cells: human HCT116 colorectal cancer cells. Reagent: single siRNA against human genes. Timing: 3 days. Measured: 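Imaged Hoechst DNA stain sorts each cell into a cycle phase by DNA amount; per plate, G2 fraction set to 0% for non-targeting and 100% for GMNN siRNA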. Reading the numbers: G2 robust z-score and G2 cells, % of GMNN control: higher = more G2 cells, more excess DNA replication; raw share of cells in G2: higher = larger share of cells with G2 DNA content. Rule for the call: 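Active siRNAs have a G2 robust z of 5 or more median absolute deviations over the median, which in these data means about 38% or higher of GMNN control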.
The deposit covers about 59,000 reagents; this is a part drawn at random. About 1,550 of all reagents (2.6%) were called active. 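G2 share is only a proxy for re-replication; each gene was hit by three separate siRNAs, and active genes were retested.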 Raw values are not corrected between plates. A number with no mark means an inactive call. Reagents against one gene are numbered here. Not given: the amount of reagent.

target	siRNA no.	G2 robust z-score	G2 cells, % of GMNN control	raw share of cells in G2 (%)
OR14C36	1	-0.54	-0.831	2.28
OR14C36	2	0.143	3.97	5.67
OR14C36	3	-0.31	0.788	3.35
PUM3	1	-0.358	0.446	5.53
PUM3	2	0.793	8.55	7.51
PUM3	3	-0.726	-2.14	2.62
AFG3L2	1	-1.31	-6.25	3.38
AFG3L2	2	1.58	14.1	9.89
AFG3L2	3	-0.471	-0.349	3.78
TCEA3	1	2.47	20.3	12
TCEA3	2	0.682	7.77	7.64
TCEA3	3	7.84 (active)	58.1	23.5
AUNIP	1	1.9	16.3	11.7
AUNIP	2	0.17	4.17	6.48
AUNIP	3	-0.56	-0.975	2.44
WFS1	1	0.702	7.91	7.08
WFS1	2	1.27	11.9	8.7
WFS1	3	0.271	4.87	7.66
OSBPL10	1	0.522	6.64	6.99
OSBPL10	2	-0.332	0.629	5.24
OSBPL10	3	0.0326	3.2	7.16
MSL2	1	1.24	11.7	9.02
MSL2	2	3.04	24.3	14.2
MSL2	3	0.607	7.24	5.45
VGLL2	1	1.04	10.3	7.12
VGLL2	2	-0.279	1.01	3.44
VGLL2	3	-0.601	-1.26	2.73
DDX56	1	4.71	36.1	22.3
DDX56	2	5.51 (active)	41.7	19.6
DDX56	3	5.72 (active)	43.2	20.4
LRRC18	1	-1.1	-4.76	1.79
LRRC18	2	-0.796	-2.63	2.42
LRRC18	3	3.48	27.4	12.4
OR2T2	1	8.4 (active)	62.1	26.4
OR2T2	2	2.31	19.2	11.1
OR2T2	3	-0.114	2.17	5.69
COX7B	1	3.74	29.3	15.7
COX7B	2	-0.754	-2.34	3.29
COX7B	3	1.16	11.1	8.93
SLC19A1	1	0.272	4.88	7.32
SLC19A1	2	0.59	7.12	6.31
SLC19A1	3	0.488	6.4	6.74
SLC4A8	1	-0.636	-1.51	4.14
SLC4A8	2	0.0748	3.49	6.52
SLC4A8	3	-0.64	-1.53	2.68
IL1B	1	-0.421	0.00481	5.69
IL1B	2	0.0983	3.66	5.54
IL1B	3	0.534	6.72	7.49
MFAP1	1	-0.452	-0.212	4.88
MFAP1	2	0.338	5.34	6.33
MFAP1	3	0.235	4.62	5.03
SLC6A5	1	-0.553	-0.923	4.94
SLC6A5	2	-0.0958	2.29	5.58
SLC6A5	3	3.55	27.9	14.7
ENG	1	0.492	6.43	7.71
ENG	2	-1.3	-6.19	2.99
ENG	3	2.16	18.2	10.1
MRPL3	1	-0.71	-2.03	4.19
MRPL3	2	-1.16	-5.16	2
MRPL3	3	-0.507	-0.597	2.95
HIGD1B	1	-0.678	-1.8	2.6
HIGD1B	2	-1.02	-4.22	2.09
HIGD1B	3	-0.0175	2.84	5.47
ORC1	1	1.08	10.6	9.19
ORC1	2	-0.775	-2.49	3.74
ORC1	3	3.38	26.8	12.3
GFOD2	1	1.43	13	9.6
GFOD2	2	-1.4	-6.91	1.69
GFOD2	3	2.84	22.9	15
